The text below walks through data of patent US9376391B2, “Difluoromethyl-nicotinic-tetrahydronaphthyl carboxamides as fungicides” (BAYER CROPSCIENCE AKTIENGESELLSCHAFT, priority 2012, dated 2016).

This series is described as follows: log P by HPLC on reversed phase columns (EEC directive 79/831 Annex V.A8). Type of series: physicochemical. As to conditions: Table 1, formula (I); HPLC/LC-MS at pH 2.7, 0.1% formic acid in water / acetonitrile, gradient 10% to 95%.

`Cc1cnc(C(F)F)c(C(=O)Nc2cccc3c2CC(C(C)C)C3(C)C)c1` (racemic) [Example 44]: the “logP^[a]” value was 4.41^[a].
